These are yes or no findings as the source states them, for the method shown. Some results given as binding are weak or reduced against the parent protein; the word gives no strength.
Biological target: T1, tetherin (Bst2), endogenous (human (endogenous in HeLa)), Q10589
T1 chain: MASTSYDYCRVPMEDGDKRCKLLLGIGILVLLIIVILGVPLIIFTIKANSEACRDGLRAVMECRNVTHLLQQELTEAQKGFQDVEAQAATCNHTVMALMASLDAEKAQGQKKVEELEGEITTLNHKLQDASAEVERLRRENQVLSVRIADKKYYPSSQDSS
Assay: non-reducing SDS-PAGE and western blot; HeLa cell lysates (1% Triton‐x100, 1 mM EDTA, 150 mM NaCl, 20 mM Tris pH 7.5) mixed with Laemmli sample buffer and run in non‐reducing conditions; blotted with anti‐tetherin to see tetherin monomer and dimers
Settings: remark: other sources report otherwise

B1: tetherin (Bst2), endogenous, Q10589 1-161 (protein)
chain: T1 chain
binding: binds

Source: article PMC10702813
